At least one compound was matched to its structure with a doubt left.
Tested on: cabbage phospholipase D (cPLD, EC 3.1.4.4)
Assay: Purified cabbage PLD activity (choline release from PC), enzyme kinetics with lipids
Type: biochemical
Description: Reactions were terminated at 30 sec intervals and choline release quantitated as in FIG. 2 legend. Values represent the mean for n≧4 for reactions in the absence of PSDP (●, r^2=0.963) and the mean for n≧3 with PSDP (Δ, r^2=0.995, 0.971 and 0.953 for 10, 100 and 1000 nM, respectively). CS Chem3D Pro software (CambridgeSoft Corp., Cambridge, Mass.) was used to calculate an energy minimized model of PSDP (inset).
PMN lysates (90-130 μg protein), purified phospholipase D (3-30 units) (EC 3.1.4.4., Sigma Chemical Co.) or recombinant hPLD1b were warmed (37° C. for mammalian enzyme and 30° C. for cabbage, 3 min) and exposed to PSDP, PSMP or FDP (10-1000 nM, 5 min, 37° C. or 30° C.) followed by PC (0.5 to 5 mM) in Tris-HCl (50 mM pH 7.5) with CaCl2 (30 mM). Reactions were terminated at 30 second intervals (0-90 seconds) with Tris-HCl (1 M) plus EDTA (50 mM). Choline release was quantitated as in ref 26.

CC(C)=CCC/C(C)=C/CC/C(C)=C/CO[P@@](=O)(O)OP(=O)(O)O (stereo in doubt) [Farnesyl diphosphate, farnesyl diphosphate]
Vm app (cPLD in presence of the lipid, enzyme alone Vm 0.29 (nmoles/sec)): 0.25
inhibition of cPLD (in words) (compared with PSDP): Comparable inhibition was not evident

Reference: patent US6864288B2, “Regulation of phospholipase D activity” (Brigham & Women's Hospital, Inc., priority 1999, dated 2005)
